Experimental data as given in patent publication US20240083998A1, “PREVENTION AND TREATMENT OF STEROID-RESISTANT OR GUT GRAFT-VERSUS-HOST DISEASE (GVHD)” (CIY OF HOPE, priority 2021, published 2024).
At least one compound was matched to its structure with a doubt left.

System: human Th/Tc22 cells in gut tissues of Xeno-GVHD recipients
Assay: Xeno-GVHD model: human PBMC, 4 dexamethasone injections
Type: in vivo
Conditions: 4-DEX; PBMCs from one of 3 donors

For `C[C@@H]1C[C@H]2[C@@H]3CCC4=CC(=O)C=C[C@]4(C)[C@@]3(F)[C@@H](O)C[C@]2(C)[C@@]1(O)C(=O)CO` [DEX, Dexamethasone], the “IL-17A−IL-22+CD4+ and CD8+T cells in the colon tissue” value was “expansion”.
